# Experimental data reported in the supplement of paper PMC12823440, “Inhibitors supercharge kinase turnover through native proteolytic circuits” (Nature, 2025).
# Chains of the proteins cited; added tags and fusions are not shown. Lines headed by an entry give the natural chain unless they say otherwise; changes in a name come on top.
# UniProt Q06187: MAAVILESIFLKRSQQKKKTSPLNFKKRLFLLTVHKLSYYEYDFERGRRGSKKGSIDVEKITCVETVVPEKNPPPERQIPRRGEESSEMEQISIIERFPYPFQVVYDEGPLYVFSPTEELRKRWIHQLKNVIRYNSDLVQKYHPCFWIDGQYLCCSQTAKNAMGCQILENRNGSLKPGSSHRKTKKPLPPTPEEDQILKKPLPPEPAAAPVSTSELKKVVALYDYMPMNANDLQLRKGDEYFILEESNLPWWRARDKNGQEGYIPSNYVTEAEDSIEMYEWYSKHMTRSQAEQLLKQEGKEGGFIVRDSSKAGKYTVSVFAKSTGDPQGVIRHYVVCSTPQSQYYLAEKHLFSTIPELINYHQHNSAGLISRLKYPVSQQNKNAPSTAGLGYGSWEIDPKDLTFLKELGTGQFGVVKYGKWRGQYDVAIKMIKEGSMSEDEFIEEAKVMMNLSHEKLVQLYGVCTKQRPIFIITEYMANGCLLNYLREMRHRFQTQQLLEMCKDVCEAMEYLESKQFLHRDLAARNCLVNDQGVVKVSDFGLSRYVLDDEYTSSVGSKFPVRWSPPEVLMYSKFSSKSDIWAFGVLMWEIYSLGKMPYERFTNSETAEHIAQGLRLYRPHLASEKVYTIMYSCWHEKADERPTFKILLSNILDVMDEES
# Where a name gives a salt, the structure may show the parent alone. The list shows a part of the results. Hit calls seldom repeat between salt and free forms of one compound.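 In K562 cells expressing nanoluciferase-fused kinases, luminescence was recorded at 4 h intervals between 2 and 18 h, normalized as percent of control with DMSO at 100% and a positive control at 0%. A significant (2 sigma) signal drop marks a time point as decreased. The authors' rule for a hit is not shown and takes in more than the number of time points.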
# System: BRAF_V600E
# Assay: number of time points (of 5) at which kinase-Nluc abundance scored as decreased, DMSO-normalised (count); higher = more persistent destabilization
# Conditions: K562; 2-18 h
row,Structure (SMILES),number of time points
1,C[C@H](Nc1ncnc2[nH]cnc12)c1cc2ccc(F)cc2nc1-c1ccccn1 (10 µM),0
2,CN(C)CCC=C1c2ccccc2CCc2ccccc21 [Amitriptyline (hydrochloride)] (2.5 µM),0
3,O=C1/C(=C\c2ccc(Cl)cc2)C=C(c2ccccc2)N1c1ccc(O)cc1 (2.5 µM),0
4,C[C@@H]1CCNC(=O)c2cc3ccc(C(=O)Nc4nc5ccccc5n4CCCN(C)C)cc3n21 (10 µM),0
5,COc1c(Nc2cc(C)[nH]n2)nc(Sc2ccc(S(=O)(=O)Cc3cccc([N+](=O)[O-])c3F)cc2F)nc1N1CCCCC1 [Centrinone-B] (2.5 µM),0
6,COc1ccc(/C=C/C(=O)C2(C(=O)/C=C/c3ccc(OC)c(OC)c3)CCCCC2)cc1OC (2.5 µM),1
7,CN(C)c1nc2c(Br)c(Br)c(Br)c(Br)c2[nH]1 (10 µM),0
8,O=C(Nc1nc(=O)n(Cc2ccc(Cl)cc2)s1)c1ccc(Cl)cc1 (10 µM),0
9,Nc1n[nH]c2nc(-c3ccc(NS(=O)(=O)c4cc(Cl)ccc4F)cc3)cnc12 (10 µM),0

# Among those listed so far, 3 have fluorine.
row,Structure (SMILES),number of time points
1,C[C@H](Nc1ncnc2[nH]cnc12)c1cc2ccc(F)cc2nc1-c1ccccn1 (10 µM),0
5,COc1c(Nc2cc(C)[nH]n2)nc(Sc2ccc(S(=O)(=O)Cc3cccc([N+](=O)[O-])c3F)cc2F)nc1N1CCCCC1 [Centrinone-B] (2.5 µM),0
9,Nc1n[nH]c2nc(-c3ccc(NS(=O)(=O)c4cc(Cl)ccc4F)cc3)cnc12 (10 µM),0

# Molecular target: BTK (UniProt Q06187)
# Assay: as above
# Conditions: K562; 2-18 h
row,Structure (SMILES),number of time points
1,CN1CC[C@@H](c2c(O)cc(O)c3c(=O)cc(-c4ccc(C(F)(F)F)cc4Cl)oc23)[C@@H]1CO [Voruciclib (hydrochloride)] (10 µM),0
2,O=c1cc(-c2cccc3c2Sc2ccccc2S3)oc(N2CCOCC2)c1 (10 µM),0
3,O=[N+]([O-])c1ccc(Nc2nc(N3CCOCC3)nc(N3CCOCC3)n2)cc1 (10 µM),0
4,c1ccc(-c2nc(=NCCN3CCOCC3)sn2-c2ccccc2)cc1 [VP3.15 (dihydrobromide)] (10 µM),0
5,Nc1nc(N)c2nc(-c3cccc(O)c3)cnc2n1 (10 µM),0
6,Nc1ncnc2c1c(-c1ccc(Oc3ccccc3)cc1)nn2C1CCN(CCOCCOCCOc2ccc3c(c2)CN(C2CCC(=O)NC2=O)C3=O)CC1 (centres undefined) (2.5 µM),0
7,C=CC(=O)N1C[C@H](COc2nc(Nc3cnn(C)c3)nc3[nH]cc(Cl)c23)[C@@H](OC)C1 (2.5 µM),0
8,Cc1nn(C)c2c1C(c1ccc(C(F)(F)F)cc1)C(C#N)=C(N)O2 (centres undefined) (10 µM),0
9,O=C(NC1CCOCC1)c1ccc(-c2cc(-c3c[nH]nc3-c3ccccn3)ccn2)cc1 (10 µM),0
10,CC/C(=N\NC(=O)c1ccnc(NCCCN2CCOCC2)c1)c1ccc(Cl)cc1O (2.5 µM),0
11,COc1cc(N2CCOCC2)ccc1Nc1ncc(Cl)c(Nc2ccccc2NS(C)(=O)=O)n1 (2.5 µM),0
12,Cn1cnc([N+](=O)[O-])c1C[N+](C)(C)C/C=C/C(=O)Nc1cc2c(Nc3ccc(Cl)c(Br)c3)ncnc2cn1 [Tarloxotinib (bromide)] (10 µM),0
13,O=C(Nc1cccc(C(F)(F)F)c1)c1cccc2cc(Oc3cc(CO)ncn3)ccc12 (10 µM),0
14,Oc1ccc(/C=C/c2cc(O)cc(O)c2)cc1 [Resveratrol] (10 µM),0
15,O=c1[nH]c(C2CCCN2)nc2c1oc1ccc(Cl)cc12 (centres undefined) [XL413 (hydrochloride)] (10 µM),0
16,CN(c1ccc(NC(=O)Nc2ccc(OC(F)(F)F)cc2)cc1)c1ccnc(Nc2cccc(S(N)(=O)=O)c2)n1 (2.5 µM),1
17,C=C[C@@](C)(/C=C/c1ccc(O)cc1)CCC=C(C)C [Bakuchiol] (10 µM),0
18,COc1cc2ncnc(-n3nc(-c4ccccn4)nc3N)c2cc1OC (10 µM),0
19,CNc1nc(Nc2ccc(C(=O)N3CCOCC3)cc2OC)ncc1Cl (2.5 µM),0
20,CC(C)S(=O)(=O)c1ccc2nccc(Nc3ccc4scnc4c3)c2c1 (10 µM),0
21,CC(C)(O)[C@H]1CC[C@H](Nc2ccc3ncc(-c4cccc(C(F)(F)F)c4)n3n2)CC1 (10 µM),0
22,CCN(CC)c1ccc2cc(-c3nc4cc(C)ccc4o3)c(=O)oc2c1 (10 µM),0
23,CN(C)S(=O)(=O)c1ccc2c(c1)/C(=C/c1cc3c([nH]1)CCCC3)C(=O)N2 (2.5 µM),0
24,C=CC(=O)Nc1cc(Nc2nccc(-n3cc(CN(C)C)c(-c4ccccc4)n3)n2)c(OC)cc1N1CCOCC1 [Lazertinib] (10 µM),0
25,Cc1ccc2c(Nc3cccc(Cl)c3F)nccc2c1NC(=O)c1csc2c(N)ncnc12 [Belvarafenib] (10 µM),0
